The record followed here is doi:10.1101/2022.04.06.487334.

These are yes or no findings as the source states them, for the method shown. Binding seen in cells or lysates may run through a third protein. Binding calls can cover weak binding; strength is not graded here.

The target in the experiment is Ammonia monooxygenase subunit AmoA of Nitrososphaera viennensis (Nitrososphaera viennensis (endogenous in N. viennensis biomass)). Description: cross-linking.

Consider “Putative ammonia monooxygenase subunit AmoX of Nitrososphaera viennensis (from UniProt A0A060HKG4)”, for which the binding result is given as “binds”.
